The chains behind the UniProt entries cited, without tags or fusion partners. Where a name states a change or a piece, a line headed by the entry shows the natural chain unless it says otherwise.
UniProt Q9Y603: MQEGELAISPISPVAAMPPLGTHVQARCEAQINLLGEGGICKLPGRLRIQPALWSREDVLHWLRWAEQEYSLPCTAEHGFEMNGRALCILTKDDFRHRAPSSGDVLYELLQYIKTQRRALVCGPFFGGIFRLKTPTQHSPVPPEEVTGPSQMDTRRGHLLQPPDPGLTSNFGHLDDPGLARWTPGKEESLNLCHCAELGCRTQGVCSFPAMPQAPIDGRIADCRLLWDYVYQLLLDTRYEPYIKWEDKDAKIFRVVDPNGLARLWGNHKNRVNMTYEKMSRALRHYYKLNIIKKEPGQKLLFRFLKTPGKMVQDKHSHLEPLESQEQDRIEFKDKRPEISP

This is a selection; strong and weak results do not stand in their true shares. At the low end of the ranking, values are background and their order means little.
The sequences below were run against ETV7 (UniProt Q9Y603) (assay: DAPPL (digital affinity profiling via proximity ligation, sequencing)). Conditions: 10 mM Tris-HCl pH 7.5, 50 mM NaCl, 1 mM DTT, 4% glycerol, room temperature, 30 min; GST-TFs on glutathione beads, 16-mer random dsDNA library, 0.1% …; high values mean tight binding; double strand, one strand shown; scale: fold enrichment (6-mer frequency, TF over GST control).
For ACGTCA, the binding signal was 0.92. Sequence CTGGAA has a binding signal of 1.32. GGCAAT showed a binding signal of 0.94. CGCCTA showed a binding signal of 0.987. GCCGAA was tested, and the binding signal was 0.973. For AGTCCC, the binding signal was 1.07. With GATACC the binding signal was 0.924. Work on ACGCTA yielded a binding signal of 1.17. Work on TGACTG yielded a binding signal of 0.905. Work on CCGTTA yielded a binding signal of 0.907. Work on CGGATT yielded a binding signal of 0.876. With GAAAGG the binding signal was 1.02. In the case of TCCCGA, the binding signal is reported as 1.35. GACCCC showed a binding signal of 0.87. For TCGTTG, the binding signal was 0.945. Work on CCAACT yielded a binding signal of 1.2. Work on TCGCGG yielded a binding signal of 1.02. TTGAAG gave a binding signal of 0.991. Work on CCCATA yielded a binding signal of 1.19. Work on AAAGTA yielded a binding signal of 1.21. CTGCAG gave a binding signal of 1.13. In the case of CTCCAG, the binding signal is reported as 0.971. For GATTCG, the binding signal was 1.01. Sequence TAGGTC has a binding signal of 1.11. GTTGCT was tested, and the binding signal was 1.38. Work on ACCGCC yielded a binding signal of 1.21. ATGGTG was tested, and the binding signal was 0.988. CATATC was tested, and the binding signal was 1.24. ACCGGT showed a binding signal of 0.815. GTATCG was tested, and the binding signal was 0.864. Work on AACCGA yielded a binding signal of 0.948. AATTCT showed a binding signal of 1.26. For ACTTGA, the binding signal was 1.08. With CAAGTT the binding signal was 0.997. TATTGA was tested, and the binding signal was 1.14. Work on TGCAAG yielded a binding signal of 0.953. GTGTAA gave a binding signal of 0.947. For CATCAA, the binding signal was 0.923. Sequence AGAGCT has a binding signal of 0.953. With GGTTAA the binding signal was 0.92.

— publication PMC7862700
